No constants are given. Whether binding was seen depends on the method and setting. In cells and extracts the contact can be indirect. Some results given as binding are weak or reduced against the parent protein; the word gives no strength. Tags and fused reporters may be left off the sequences shown.
Target: T1, GST-GGA3 (Golgi associated, gamma-adaptin ear containing, Arf-binding protein 3) (UniProt Q9NZ52)
T1 sequence: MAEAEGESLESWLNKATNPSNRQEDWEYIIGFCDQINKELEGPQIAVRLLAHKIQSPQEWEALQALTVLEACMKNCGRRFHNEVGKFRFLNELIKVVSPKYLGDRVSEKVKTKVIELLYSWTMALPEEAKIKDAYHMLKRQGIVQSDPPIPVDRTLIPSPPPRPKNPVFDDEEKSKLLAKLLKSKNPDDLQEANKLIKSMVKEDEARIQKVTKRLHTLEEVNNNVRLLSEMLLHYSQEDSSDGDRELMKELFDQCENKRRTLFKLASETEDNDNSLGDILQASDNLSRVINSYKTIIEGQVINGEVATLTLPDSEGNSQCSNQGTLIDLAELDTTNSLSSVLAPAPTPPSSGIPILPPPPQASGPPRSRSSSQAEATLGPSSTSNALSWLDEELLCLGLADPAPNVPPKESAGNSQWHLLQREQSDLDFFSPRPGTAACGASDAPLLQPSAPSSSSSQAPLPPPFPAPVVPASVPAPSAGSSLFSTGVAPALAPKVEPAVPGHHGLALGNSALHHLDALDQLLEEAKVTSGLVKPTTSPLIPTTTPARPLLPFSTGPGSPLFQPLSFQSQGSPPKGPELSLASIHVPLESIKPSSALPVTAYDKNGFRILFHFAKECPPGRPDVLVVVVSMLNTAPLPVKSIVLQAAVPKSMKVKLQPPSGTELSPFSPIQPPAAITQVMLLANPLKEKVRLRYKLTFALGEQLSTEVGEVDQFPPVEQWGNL
Assay: pull-down; only the target purified

Sequences of proteins named here, by UniProt entry; tags and fusion partners are left off.
UniProt P84077: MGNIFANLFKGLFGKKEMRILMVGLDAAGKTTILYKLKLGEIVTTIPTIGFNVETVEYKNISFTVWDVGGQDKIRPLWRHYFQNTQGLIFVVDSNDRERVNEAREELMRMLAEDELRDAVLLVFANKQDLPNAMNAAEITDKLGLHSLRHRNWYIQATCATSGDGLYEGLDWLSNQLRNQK

## ADP ribosylation factor 1, GTP-bound (activated) form (from UniProt P84077 1-181)
  binding: binds
